# From PubChem BioAssay AID463199 (Broad Institute, 2010)
# The full ranking holds about 2,300 compounds; the median of “growth induction” is about -24, and the highest 2% start at about 42. This is one part of the list. Potency and affinity values are given separately. Entries without a call are filed as inconclusive in the source.
# Assay: growth induction of Burl-1 ts yeast mutant, dose response, counter-screen for SUMOylation pathway inhibitor project, whole organism, S. cerevisiae, luminescence (AID 463199)
# Conditions: S. cerevisiae Burl-1 ts mutant growth, BacTiter-Glo, 38.5C 24 h; at 42 µM (top of the series)
row,SMILES,growth induction [%]
1,CCOC(=O)c1ccc(CNC(=O)C2CCCCC2C(=O)OCC(F)(F)F)o1 (centres undefined),41.9
2,N#Cc1c2ccc([N+](=O)[O-])cc2[n+]([O-])n1-c1ccccc1,13.5
3,Cc1ccc(/C=C/C(=O)c2ccc([N+](=O)[O-])o2)cc1,-24.1
4,N#Cc1c(NC(=O)c2ccc([N+](=O)[O-])o2)sc2c1CCC2,-50.2
